{"source": "PubChem BioAssay AID1224828 (NIAID, 2016)", "screen": "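Regulators linking TLR4 signalling to p65 nuclear translocation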 (primary screen)", "cell system": "mouse RAW264.7 G9 macrophage reporter cells (GFP-p65, Tnf promoter-mCherry)", "knock-down reagent": "siRNA pool against mouse genes, 100 nM", "time to read-out": "2 days siRNA transfection, then 40 min LPS before fixation", "challenge": "LPS (Salmonella minnesota R595) at 10 ng/ml", "read-out": "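Imaged p65 nuclear translocation ratio, normalised to the plate median, converted to robust z-scores and averaged across two replicates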", "scale": "p65 translocation robust z-score: higher = more nuclear NF-kappaB p65 after LPS than the plate median; nuclear/cytoplasmic p65 ratio: higher = more nuclear NF-kappaB p65", "rule for the call": "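Called active when z exceeds 3.3 or falls under -1.56 (median of Tlr4 controls), giving activity score of at least 50; no calls for control wells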", "calls": "active = hit (p65 shift raised or lowered); inactive = no clear change", "note": "The deposit covers about 17,000 reagents; this is an unselected part. 762 of all reagents (4.5%) were called active. 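Active calls include both raised and lowered p65 entry, mostly lowered; wells with fewer than 50 cells lack a z-score.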 Raw values are not corrected between plates."}
{"target": "Hoxa13 (homeobox A13)", "p65 translocation robust z-score": 0.64, "nuclear/cytoplasmic p65 ratio, rep 1": 1.62, "nuclear/cytoplasmic p65 ratio, rep 2": 1.36, "low cell count flag": "enough cells to score", "Outcome": "inactive"}
{"target": "Inpp5j (inositol polyphosphate 5-phosphatase J)", "p65 translocation robust z-score": 0.37, "nuclear/cytoplasmic p65 ratio, rep 1": 1.51, "nuclear/cytoplasmic p65 ratio, rep 2": 1.49, "low cell count flag": "enough cells to score", "Outcome": "inactive"}
{"target": "Rbm12 (RNA binding motif protein 12)", "nuclear/cytoplasmic p65 ratio, rep 1": 1.35, "nuclear/cytoplasmic p65 ratio, rep 2": 1.18, "low cell count flag": "fewer than 50 cells per well; well left out of scoring", "Outcome": "inactive"}
{"target": "Casp9 (caspase 9)", "p65 translocation robust z-score": 0.91, "nuclear/cytoplasmic p65 ratio, rep 1": 1.67, "nuclear/cytoplasmic p65 ratio, rep 2": 1.82, "low cell count flag": "enough cells to score", "Outcome": "inactive"}
{"target": "Hoxa9 (homeobox A9)", "p65 translocation robust z-score": 0.14, "nuclear/cytoplasmic p65 ratio, rep 1": 1.39, "nuclear/cytoplasmic p65 ratio, rep 2": 1.45, "low cell count flag": "enough cells to score", "Outcome": "inactive"}
{"target": "Nectin4 (nectin cell adhesion molecule 4)", "p65 translocation robust z-score": 1.03, "nuclear/cytoplasmic p65 ratio, rep 1": 1.72, "nuclear/cytoplasmic p65 ratio, rep 2": 1.61, "low cell count flag": "enough cells to score", "Outcome": "inactive"}
{"target": "Prl4a1 (prolactin family 4, subfamily a, member 1)", "p65 translocation robust z-score": 0.05, "nuclear/cytoplasmic p65 ratio, rep 1": 1.45, "nuclear/cytoplasmic p65 ratio, rep 2": 1.17, "low cell count flag": "enough cells to score", "Outcome": "inactive"}
{"target": "Prrc2a (proline-rich coiled-coil 2A)", "p65 translocation robust z-score": 0.5, "nuclear/cytoplasmic p65 ratio, rep 1": 1.65, "nuclear/cytoplasmic p65 ratio, rep 2": 1.93, "low cell count flag": "enough cells to score", "Outcome": "inactive"}
{"target": "Abr (active BCR-related gene)", "p65 translocation robust z-score": -0.79, "nuclear/cytoplasmic p65 ratio, rep 1": 1.54, "nuclear/cytoplasmic p65 ratio, rep 2": 1.45, "low cell count flag": "enough cells to score", "Outcome": "inactive"}
{"target": "Nkd1 (naked cuticle 1)", "p65 translocation robust z-score": 1.35, "nuclear/cytoplasmic p65 ratio, rep 1": 1.94, "nuclear/cytoplasmic p65 ratio, rep 2": 1.72, "low cell count flag": "enough cells to score", "Outcome": "inactive"}
{"target": "Akt1s1 (AKT1 substrate 1)", "p65 translocation robust z-score": -2.04, "nuclear/cytoplasmic p65 ratio, rep 1": 1.27, "nuclear/cytoplasmic p65 ratio, rep 2": 1.4, "low cell count flag": "enough cells to score", "Outcome": "active"}
{"target": "4921536K21Rik (RIKEN cDNA 4921536K21 gene)", "nuclear/cytoplasmic p65 ratio, rep 1": 1.47, "nuclear/cytoplasmic p65 ratio, rep 2": 1.3, "low cell count flag": "fewer than 50 cells per well; well left out of scoring", "Outcome": "inactive"}
{"target": "Tbx20 (T-box 20)", "nuclear/cytoplasmic p65 ratio, rep 1": 1.42, "nuclear/cytoplasmic p65 ratio, rep 2": 1.3, "low cell count flag": "fewer than 50 cells per well; well left out of scoring", "Outcome": "inactive"}
{"target": "Map3k13 (mitogen-activated protein kinase kinase kinase 13)", "p65 translocation robust z-score": -1.4, "nuclear/cytoplasmic p65 ratio, rep 1": 1.45, "nuclear/cytoplasmic p65 ratio, rep 2": 1.38, "low cell count flag": "enough cells to score", "Outcome": "inactive"}
{"target": "Btnl9 (butyrophilin-like 9)", "p65 translocation robust z-score": 1.24, "nuclear/cytoplasmic p65 ratio, rep 1": 1.69, "nuclear/cytoplasmic p65 ratio, rep 2": 1.79, "low cell count flag": "enough cells to score", "Outcome": "inactive"}
{"target": "Sulf1 (sulfatase 1)", "p65 translocation robust z-score": 1.08, "nuclear/cytoplasmic p65 ratio, rep 1": 1.58, "nuclear/cytoplasmic p65 ratio, rep 2": 1.34, "low cell count flag": "enough cells to score", "Outcome": "inactive"}
{"target": "Irgm1 (immunity-related GTPase family M member 1)", "p65 translocation robust z-score": 0.35, "nuclear/cytoplasmic p65 ratio, rep 1": 1.57, "nuclear/cytoplasmic p65 ratio, rep 2": 1.51, "low cell count flag": "enough cells to score", "Outcome": "inactive"}
{"target": "Mmp21 (matrix metallopeptidase 21)", "p65 translocation robust z-score": -1.13, "nuclear/cytoplasmic p65 ratio, rep 1": 1.27, "nuclear/cytoplasmic p65 ratio, rep 2": 1.22, "low cell count flag": "enough cells to score", "Outcome": "inactive"}
{"target": "Tmem40 (transmembrane protein 40)", "nuclear/cytoplasmic p65 ratio, rep 1": 1.32, "nuclear/cytoplasmic p65 ratio, rep 2": 1.43, "low cell count flag": "fewer than 50 cells per well; well left out of scoring", "Outcome": "inactive"}
{"target": "Rptor (regulatory associated protein of MTOR, complex 1)", "p65 translocation robust z-score": 0.52, "nuclear/cytoplasmic p65 ratio, rep 1": 1.71, "nuclear/cytoplasmic p65 ratio, rep 2": 1.67, "low cell count flag": "enough cells to score", "Outcome": "inactive"}
{"target": "4930447C04Rik (RIKEN cDNA 4930447C04 gene)", "p65 translocation robust z-score": 1.22, "nuclear/cytoplasmic p65 ratio, rep 1": 1.2, "nuclear/cytoplasmic p65 ratio, rep 2": 1.45, "low cell count flag": "enough cells to score", "Outcome": "inactive"}

3 of these entries, set out differently:
target	p65 translocation robust z-score	nuclear/cytoplasmic p65 ratio, rep 1	nuclear/cytoplasmic p65 ratio, rep 2	low cell count flag	Outcome
Nkd1 (naked cuticle 1)	1.35	1.94	1.72	enough cells to score	inactive
Akt1s1 (AKT1 substrate 1)	-2.04	1.27	1.4	enough cells to score	active
4921536K21Rik (RIKEN cDNA 4921536K21 gene)		1.47	1.3	fewer than 50 cells per well; well left out of scoring	inactive
